The source of these data is paper PMC5679597.

No constants are given. Whether binding was seen depends on the method and setting. Binding seen in cells or lysates may run through a third protein. Here binding means that the protein was enriched with, or labelled near, the bait; the list need not be complete. Sequences can lack the tags named with a protein.

This assay addresses T1, GFP-tagged LNX1p80 (Ligand of Numb protein X1, p80 isoform) (mouse) (UniProt O70263).
T1 sequence: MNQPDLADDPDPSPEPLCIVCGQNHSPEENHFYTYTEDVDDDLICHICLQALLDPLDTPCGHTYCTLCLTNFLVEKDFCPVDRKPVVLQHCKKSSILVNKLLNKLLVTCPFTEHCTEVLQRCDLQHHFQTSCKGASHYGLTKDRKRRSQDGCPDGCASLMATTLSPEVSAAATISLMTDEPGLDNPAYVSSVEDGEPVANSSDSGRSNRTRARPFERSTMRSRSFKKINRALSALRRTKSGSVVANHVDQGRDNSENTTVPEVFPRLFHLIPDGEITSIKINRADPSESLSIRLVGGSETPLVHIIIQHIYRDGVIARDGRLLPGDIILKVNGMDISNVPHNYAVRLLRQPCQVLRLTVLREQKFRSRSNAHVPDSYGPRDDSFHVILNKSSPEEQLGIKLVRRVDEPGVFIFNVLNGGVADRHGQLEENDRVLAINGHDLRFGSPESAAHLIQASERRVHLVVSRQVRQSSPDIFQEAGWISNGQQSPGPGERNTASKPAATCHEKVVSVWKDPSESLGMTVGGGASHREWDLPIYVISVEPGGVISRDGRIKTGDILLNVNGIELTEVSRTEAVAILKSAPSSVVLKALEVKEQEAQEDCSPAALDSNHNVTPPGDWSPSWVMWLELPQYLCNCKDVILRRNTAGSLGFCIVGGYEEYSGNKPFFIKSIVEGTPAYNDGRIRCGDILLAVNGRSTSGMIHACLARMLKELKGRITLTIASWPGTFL
As to the kind of experiment: affinity purification with mass spectrometry; GFP-LNX1p80 complexes purified on magnetic GFP-Trap beads from stably transfected HEK 293 cells; gel slices, nano-LC MS/MS; proteins also found with GFP alone removed; Mascot protein score cut-off 70.

B1: Isoleucyl-tRNA synthetase, cytoplasmic, endogenous (protein, UniProt P41252 1-1262)
chain: MLQQVPENINFPAEEEKILEFWTEFNCFQECLKQSKHKPKFTFYDGPPFATGLPHYGHILAGTIKDIVTRYAHQSGFHVDRRFGWDCHGLPVEYEIDKTLGIRGPEDVAKMGITEYNNQCRAIVMRYSAEWKSTVSRLGRWIDFDNDYKTLYPQFMESVWWVFKQLYDKGLVYRGVKVMPFSTACNTPLSNFESHQNYKDVQDPSVFVTFPLEEDETVSLVAWTTTPWTLPSNLAVCVNPEMQYVKIKDVARGRLLILMEARLSALYKLESDYEILERFPGAYLKGKKYRPLFDYFLKCKENGAFTVLVDNYVKEEEGTGVVHQAPYFGAEDYRVCMDFNIIRKDSLPVCPVDASGCFTTEVTDFAGQYVKDADKSIIRTLKEQGRLLVATTFTHSYPFCWRSDTPLIYKAVPSWFVRVENMVDQLLRNNDLCYWVPELVREKRFGNWLKDARDWTISRNRYWGTPIPLWVSDDFEEVVCIGSVAELEELSGAKISDLHRESVDHLTIPSRCGKGSLHRISEVFDCWFESGSMPYAQVHYPFENKREFEDAFPADFIAEGIDQTRGWFYTLLVLATALFGQPPFKNVIVNGLVLASDGQKMSKRKKNYPDPVSIIQKYGADALRLYLINSPVVRAENLRFKEEGVRDVLKDVLLPWYNAYRFLIQNVLRLQKEEEIEFLYNENTVRESPNITDRWILSFMQSLIGFFETEMAAYRLYTVVPRLVKFVDILTNWYVRMNRRRLKGENGMEDCVMALETLFSVLLSLCRLMAPYTPFLTELMYQNLKVLIDPVSVQDKDTLSIHYLMLPRVREELIDKKTESAVSQMQSVIELGRVIRDRKTIPIKYPLKEIVVIHQDPEALKDIKSLEKYIIEELNVRKVTLSTDKNKYGIRLRAEPDHMVLGKRLKGAFKAVMTSIKQLSSEELEQFQKTGTIVVEGHELHDEDIRLMYTFDQATGGTAQFEAHSDAQALVLLDVTPDQSMVDEGMAREVINRIQKLRKKCNLVPTDEITVYYKAKSEGTYLNSVIESHTEFIFTTIKAPLKPYPVSPSDKVLIQEKTQLKGSELEITLTRGSSLPGPACAYVNLNICANGSEQGGVLLLENPKGDNRLDLLKLKSVVTSIFGVKNTELAVFHDETEIQNQTDLLSLSGKTLCVTAGSAPSLINSSSTLLCQYINLQLLNAKPQECLMGTVGTLLLENPLGQNGLTHQGLLYEAAKVFGLRSRKLKLFLNETQTQEITEDIPVKTLNMKTVYVSVLPTTADF
With B1, the binding result was “binds”.

B2: TMED4, endogenous (protein, UniProt Q7Z7H5 30-227)
chain: LYFHIGETEKRCFIEEIPDETMVIGNYRTQMWDKQKEVFLPSTPGLGMHVEVKDPDGKVVLSRQYGSEGRFTFTSHTPGDHQICLHSNSTRMALFAGGKLRVHLDIQVGEHANNYPEIAAKDKLTELQLRARQLLDQVEQIQKEQDYQRYREERFRLTSESTNQRVLWWSIAQTVILILTGIWQMRHLKSFFEAKKLV
Consider B2, for which the binding result is on record as “binds”.

B3: Kelch-like protein 11, endogenous (protein, UniProt Q9NVR0 16-708)
chain: ASLQVLEMESMETAAAGSAGLAAEVRGSGTVDFGPGPGISAMEASGGDPGPEAEDFECSSHCSELSWRQNEQRRQGLFCDITLCFGGAGGREFRAHRSVLAAATEYFTPLLSGQFSESRSGRVEMRKWSSEPGPEPDTVEAVIEYMYTGRIRVSTGSVHEVLELADRFLLIRLKEFCGEFLKKKLHLSNCVAIHSLAHMYTLSQLALKAADMIRRNFHKVIQDEEFYTLPFHLIRDWLSDLEITVDSEEVLFETVLKWVQRNAEERERYFEELFKLLRLSQMKPTYLTRHVKPERLVANNEVCVKLVADAVERHALRAENIQSGTCQHPTSHVSLLPRYGQNMDVIMVIGGVSEGGDYLSECVGYFVDEDRWVNLPHIHNHLDGHAVAVTESYVYVAGSMEPGFAKTVERYNPNLNTWEHVCSLMTRKHSFGLTEVKGKLYSIGGHGNFSPGFKDVTVYNPELDKWHNLESAPKILRDVKALAIEDRFVYIAARTPVDRDTEDGLKAVITCYDTETRQWQDVESLPLIDNYCFFQMSVVNSNFYQTASCCPKSYCLENEEAVRKIASQVSDEILESLPPEVLSIEGAAICYYKDDVFIIGGWKNSDDIDKQYRKEAYRYCAERKRWMLLPPMPQPRCRATACHVRIPYRYLHGTQRYPMPQNLMWQKDRIRQMQEIHRHALNMRRVPSSQIEC
As to B3, the binding entry was “binds”.

B4: Kinesin-like protein KIF7, endogenous (protein, UniProt Q2M1P5 1-1343)
chain: MGLEAQRLPGAEEAPVRVALRVRPLLPKELLHGHQSCLQVEPGLGRVTLGRDRHFGFHVVLAEDAGQEAVYQACVQPLLEAFFEGFNATVFAYGQTGSGKTYTMGEASVASLLEDEQGIVPRAMAEAFKLIDENDLLDCLVHVSYLEVYKEEFRDLLEVGTASRDIQLREDERGNVVLCGVKEVDVEGLDEVLSLLEMGNAARHTGATHLNHLSSRSHTVFTVTLEQRGRAPSRLPRPAPGQLLVSKFHFVDLAGSERVLKTGSTGERLKESIQINSSLLALGNVISALGDPQRRGSHIPYRDSKITRILKDSLGGNAKTVMIACVSPSSSDFDETLNTLNYASRAQNIRNRATVNWRPEAERPPEETASGARGPPRHRSETRIIHRGRRAPGPATASAAAAMRLGAECARYRACTDAAYSLLRELQAEPGLPGAAARKVRDWLCAVEGERSALSSASGPDSGIESASVEDQAAQGAGGRKEDEGAQQLLTLQNQVARLEEENRDFLAALEDAMEQYKLQSDRLREQQEEMVELRLRLELVRPGWGGPRLLNGLPPGSFVPRPHTAPLGGAHAHVLGMVPPACLPGDEVGSEQRGEQVTNGREAGAELLTEVNRLGSGSSAASEEEEEEEEPPRRTLHLRRNRISNCSQRAGARPGSLPERKGPELCLEELDAAIPGSRAVGGSKARVQARQVPPATASEWRLAQAQQKIRELAINIRMKEELIGELVRTGKAAQALNRQHSQRIRELEQEAEQVRAELSEGQRQLRELEGKELQDAGERSRLQEFRRRVAAAQSQVQVLKEKKQATERLVSLSAQSEKRLQELERNVQLMRQQQGQLQRRLREETEQKRRLEAEMSKRQHRVKELELKHEQQQKILKIKTEEIAAFQRKRRSGSNGSVVSLEQQQKIEEQKKWLDQEMEKVLQQRRALEELGEELHKREAILAKKEALMQEKTGLESKRLRSSQALNEDIVRVSSRLEHLEKELSEKSGQLRQGSAQSQQQIRGEIDSLRQEKDSLLKQRLEIDGKLRQGSLLSPEEERTLFQLDEAIEALDAAIEYKNEAITCRQRVLRASASLLSQCEMNLMAKLSYLSSSETRALLCKYFDKVVTLREEQHQQQIAFSELEMQLEEQQRLVYWLEVALERQRLEMDRQLTLQQKEHEQNMQLLLQQSRDHLGEGLADSRRQYEARIQALEKELGRYMWINQELKQKLGGVNAVGHSRGGEKRSLCSEGRQAPGNEDELHLAPELLWLSPLTEGAPRTREETRDLVHAPLPLTWKRSSLCGEEQGSPEELRQREAAEPLVGRVLPVGEAGLPWNFGPLSKPRRELRRASPGMIDVRKNPL
Consider B4, for which the binding entry is listed as “binds”.

B5: TMED5, endogenous (protein, UniProt Q9Y3A6 28-229)
chain: FTPSLDSDFTFTLPAGQKECFYQPMPLKASLEIEYQVLDGAGLDIDFHLASPEGKTLVFEQRKSDGVHTVETEVGDYMFCFDNTFSTISEKVIFFELILDNMGEQAQEQEDWKKYITGTDILDMKLEDILESINSIKSRLSKSGHIQTLLRAFEARDRNIQESNFDRVNFWSMVNLVVMVVVSAIQVYMLKSLFEDKRKSRT
Regarding B5, the binding entry was “binds”.

B6: TMED9, endogenous (protein, UniProt Q9BVK6 38-235)
chain: LYFHIGETEKKCFIEEIPDETMVIGNYRTQLYDKQREEYQPATPGLGMFVEVKDPEDKVILARQYGSEGRFTFTSHTPGEHQICLHSNSTKFSLFAGGMLRVHLDIQVGEHANDYAEIAAKDKLSELQLRVRQLVEQVEQIQKEQNYQRWREERFRQTSESTNQRVLWWSILQTLILVAIGVWQMRHLKSFFEAKKLV
Take B6: the binding result was “binds”.
